Laboratory results as given in PubChem BioAssay AID2417 (National Center for Advancing Translational Sciences (NCATS), 2010).
Hit rate of the full screen: of about 140,000 compounds, about 4,300 (3.1%) were called active. This list was built around the results that the source calls inconclusive (neither active nor inactive); the mix of calls is not that of the screen.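 How the source made its calls: active means readout at or below -70, meaning at least 70% loss of cells showing the perinucleolar compartment, a nuclear body marking cancer cells; inconclusive means readout between -30 and a set limit; inactive means the rest.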

Experiment: High Content Assay for Compounds that inhibit the Assembly of the Perinucleolar Compartment;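 further: plate controls were DMSO wells for no effect and camptothecin positive control wells for full effect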
Conditions: PC3M PTB-GFP, PNC prevalence imaging, 16 h; at 10 µM; stronger effect = lower value
Procedure, shortened: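 Read-out is percentage of cells bearing a perinucleolar compartment, from automated 20x imaging of fixed, Hoechst-stained PC3M PTB-GFP cells. Cells were seeded 4 h, then exposed 16 h to compound (23 nl of library stock) in duplicate plates.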

Structure (SMILES) | activity change (PNC), negative = inhibition
O=C(Cn1c(=O)n2ncnc2c2c3c(sc21)CCCC3)c1ccccc1 | inconclusive: -54.4%
O=C(CNC(=O)Cc1ccccc1)NCC(=O)OCC(=O)c1ccccc1Cl | inactive: 90.5%
Cn1c(=O)oc2cc(S(=O)(=O)NCCC(=O)Nc3ccc4c(c3)OCCO4)ccc21 | inconclusive: -42.3%
COC(=O)c1cn(C(=O)c2ccc(Br)o2)c2ccccc12 | inconclusive: -61.7%
COc1cc(C(=O)Nc2ccccc2C2COC(=O)C2=N)cc(OC)c1OC (configuration not stated) | inactive: -2.54%
Cc1ccc(SCC(=O)Nc2ccc(F)cc2[N+](=O)[O-])cc1C | inconclusive: -54.1%
O=C(COC(=O)c1cc2ccccc2oc1=O)Nc1cccc(S(=O)(=O)N2CCCCCC2)c1 | inconclusive: -63%
O=C(/C=C/c1ccccc1)n1cnnc1SC/C=C/c1ccccc1 | inactive: -16.1%
COc1cccc(N2CCN(C(=O)c3cccnc3)CC2)c1 | inactive: 3.49%
COC(=O)c1ccc(S(=O)(=O)N2CCCC2)o1 | inconclusive: -54.7%
CNc1nnc(-c2ccc(N(C)C)cc2)s1 | active: -95.2%
CC(C)CC(C(=O)NC1CCCC1)N(Cc1cccs1)C(=O)c1snc(C(N)=O)c1N (configuration not stated) | inactive: -6.98%
c1ccc2c(c1)OCCOCCOc1ccccc1OCCOCCO2 | inactive: 23.9%
Cc1cccc(NC(=O)CN2C(=O)N/C(=C\c3ccc(N4CCOCC4)cc3)C2=O)c1 | inconclusive: -48.3%
Clc1ccc(Cn2ncc3c(NCc4ccco4)ncnc32)c(Cl)c1 | inactive: 39.6%
CS(=O)(=O)Nc1ccccc1C(=O)Nc1ccccc1Cl | inactive: 26.9%
CCc1ccccc1NC(=O)NC1CCCCC1 | inconclusive: -50.5%
CC1=C(C)CC(C(=O)Nc2cccc(Cl)c2)C(C(=O)O)C1 (configuration not stated) | inconclusive: -51.3%
O=C(NCc1ccc(C(F)(F)F)cc1)C1CC(c2c(Cl)cccc2Cl)=NO1 (configuration not stated) | inconclusive: -32.7%
O=C(c1ccccc1Cl)N1CCN(c2ccccn2)CC1 | inconclusive: -32.6%
CCCc1[nH]nc2c1C(Cc1ccccc1)C(C#N)=C(N)O2 (configuration not stated) | inactive: -16.6%
O=C(NC(=S)Nc1ccc(Oc2ccccc2)cc1)c1ccc(Cl)cc1 | inconclusive: -67.9%
Cc1cc(NC(=O)COC(=O)[C@H](Cc2c[nH]c3ccccc23)NC(=O)c2ccc(F)cc2)no1 | inconclusive: -44.4%

For convenience, part of the list above.
Structure (SMILES) | activity change (PNC), negative = inhibition
CC1=C(C)CC(C(=O)Nc2cccc(Cl)c2)C(C(=O)O)C1 (configuration not stated) | inconclusive: -51.3%
O=C(NCc1ccc(C(F)(F)F)cc1)C1CC(c2c(Cl)cccc2Cl)=NO1 (configuration not stated) | inconclusive: -32.7%
O=C(c1ccccc1Cl)N1CCN(c2ccccn2)CC1 | inconclusive: -32.6%
CCCc1[nH]nc2c1C(Cc1ccccc1)C(C#N)=C(N)O2 (configuration not stated) | inactive: -16.6%
O=C(NC(=S)Nc1ccc(Oc2ccccc2)cc1)c1ccc(Cl)cc1 | inconclusive: -67.9%
Cc1cc(NC(=O)COC(=O)[C@H](Cc2c[nH]c3ccccc23)NC(=O)c2ccc(F)cc2)no1 | inconclusive: -44.4%

More structures follow:

Structure (SMILES) | activity change (PNC), negative = inhibition
CCOc1ccccc1NC(=O)COC(=O)Cc1ccc(-c2ccccc2)cc1 | inactive: -9.25%
CCOC(=O)c1c(SC)nc(SC)c2c1CCC2 | inactive: 9.81%
Cc1noc(C)c1S(=O)(=O)Nc1ccc(C(=O)N2CCCCC2)cc1 | inactive: -19.5%
COc1ccc(CNC(=O)C2CC=CCC2C(=O)O)cc1OC (configuration not stated) | inconclusive: -65.7%
COCCNC(=O)c1cc2sc3ccccc3c2s1 | inconclusive: -52.4%
Cc1cc(N=Cc2cc(Br)ccc2O)no1 | inconclusive: -79.5%
O=C(NC(=S)N1CCN(c2ccc([N+](=O)[O-])cc2)CC1)c1ccccc1F | inactive: -22.9%
Cc1cc(C)cc(OCC(=O)NNC(=O)CN2C(=O)c3ccccc3C2=O)c1 | inconclusive: -61.4%
COCCNC(=O)c1onc(CSc2ccc(C)c(C)c2)c1C(=O)O | inconclusive: -32.4%
CC1CC(C)CN(S(=O)(=O)c2ccc(C(=O)Nc3sccc3C(N)=O)cc2)C1 (configuration not stated) | inactive: -1.87%
CCOC(=O)C1=C(C)C(c2ccc(OC)cc2)NC(=S)N1 (configuration not stated) | inconclusive: -30.4%
COc1ccc(-c2cc(-c3ccc(C)cc3)nc(SCc3nnc(-c4ccccc4)o3)c2C#N)cc1OC | inactive: 8.81%
COc1ccc(-c2noc(CSc3nc4sc(C)c(C)c4c(=O)n3-c3ccccc3)n2)cc1OC | inconclusive: -44.6%
Cc1cc(Cl)ccc1OCC(=O)N1CCCCC1 | inactive: -2.93%
Cc1ccc(C(=O)N/C(=C/c2ccco2)C(=O)NCC2CCCO2)cc1 (configuration not stated) | inconclusive: -30.1%
O=C(NCc1cccs1)C1CCCN(S(=O)(=O)c2ccc(Br)s2)C1 (configuration not stated) | inconclusive: -39.1%
Cc1ccc(S(=O)(=O)N(CC(=O)NCc2ccco2)Cc2ccccc2F)cc1 | inconclusive: -73.2%
COC(=O)Cc1c(C)nc2nc(-c3ccc(OC)cc3)[nH]n2c1=O | inconclusive: -47.8%
CC(=O)N1CCc2cc(S(=O)(=O)NCCC(=O)Nc3cccc(C)c3C)ccc21 | inconclusive: -78.4%
CCOc1ccc(C(C)=O)cc1COC(=O)C1=COCCO1 | inactive: 21%
O=C(/C=C/c1ccco1)NC(=S)Nc1nc(-c2ccc(Cl)cc2)cs1 | inactive: 20.8%
CCOc1ccc(CN(Cc2ccco2)C(c2cccs2)c2nnnn2C(C)(C)C)cc1 (configuration not stated) | inconclusive: -36.9%
Clc1ccc(SCCn2cncn2)cc1 | inactive: -25%

Structure (SMILES) | activity change (PNC), negative = inhibition
O=C1Nc2ccccc2S/C1=C/Nc1cccc(Cl)c1 | inconclusive: -36%
COC(=O)c1c(NC(=O)CN2C(=O)NC3(CCc4ccccc4C3)C2=O)sc2c1CCCCC2 (configuration not stated) | inconclusive: -47.3%
COc1ccc(-c2nc(C#N)c(NCCc3ccccc3)o2)cc1 | active: -100%
N#C/C(=C/c1ccc(N2CCOCC2)o1)c1nc2ccccc2[nH]1 | inconclusive: -50.2%
CC(c1ccccc1)C1CC(=O)N(c2ccc(C(=O)O)cc2)C1=O (configuration not stated) | inconclusive: -34.9%
O=c1[nH]c2ccccc2n1C1=CCCC1 | inconclusive: -38.4%
O=C(Oc1ccccc1)Oc1ccc2c(c1)oc(=O)c1ccccc12 | inconclusive: -37.1%
N#CC1=C(N)OC2=C(C(=O)CCC2)C1c1ccc(OC(=O)N2CCOCC2)cc1 (configuration not stated) | inactive: 0.777%
CCNC(=O)c1ccccc1-c1nc(-c2ccccc2Cl)no1 | inactive: 6.83%
Cc1nc(-c2ccc(O)c(O)c2)cs1 | inconclusive: -37.3%
O=C(COC(=O)C1CC(=O)N(Cc2ccco2)C1)c1ccc(OC(=O)c2ccccc2)cc1 (configuration not stated) | inactive: -3.24%
O=C(COc1ccc(Cl)cc1)OCc1csc(Nc2ccccc2)n1 | inconclusive: -33.2%
COc1ccc(/C=C(/C(=O)c2cccs2)N2C=CC=CC2=C(C#N)C#N)cc1 | inactive: 6.13%
O=C(N/N=C/c1ccc(F)cc1)c1c(O)c2ccccc2[nH]c1=O | inactive: 19.1%
O=C(CNC(=O)c1ccccc1)OCc1cccc([N+](=O)[O-])c1 | inconclusive: -48.3%
CC(c1ccccc1)n1cc(C(=O)NCc2ccncc2)nn1 (configuration not stated) | inconclusive: -45.5%
COc1ccc(NC(=O)c2noc3c2CCC3)cc1 | inconclusive: -59.1%
O=C(COc1nncc2ccccc12)NCCC1=CCCCC1 | inconclusive: -63.7%
CN(C)C(=O)COn1c(SCC(=O)N(C)C)nc2ccccc2c1=O | inconclusive: -47.8%
COc1ccc(/C=N/NC(=O)Nc2nonc2N)cc1 | inconclusive: -49%
Cc1ccc2cc(CN(Cc3ccc(F)cc3)Cc3nnnn3C3CCCC3)c(=O)[nH]c2c1 | inconclusive: -47.5%
S=C(N/N=C/c1ccccc1Cl)Nc1ccccc1 | inconclusive: -34.5%
CN1/C(=C\C(=O)c2ccccc2Cl)c2ccccc2CC1(C)C | inconclusive: -51.5%

Structure (SMILES) | activity change (PNC), negative = inhibition
COc1ccc(/C=C(\C#N)C(=O)OCC(=O)Nc2c(C)cccc2C)cc1 | active: -81.3%
O=C1CC(NCc2ccco2)C(=O)N1CCc1ccccc1 (configuration not stated) | inactive: 1.1%
CCOC(=O)C(=NC(C)C)NNc1cc(Cl)ccc1Cl | inconclusive: -44.9%
COc1ccc(-n2nc3c(c2NC(=O)Cc2cccc(C)c2)CS(=O)C3)cc1 (configuration not stated) | inactive: 1.65%
CCOC(=O)C1(C(=O)O)NC(=O)CC1c1ccccc1 (configuration not stated) | active: -95.2%
O=C(c1ccccc1)c1cc[n+]([O-])cc1 | inconclusive: -46.9%
CN=CC1=C(O)CC(C)(C)CC1=O | inactive: -16.3%
CCN1CCN(C(=O)c2sc3nc(C)nc(N4CCC(C)CC4)c3c2C)CC1 | active: -88.2%
CC1(C)C(=O)OC(c2cccn2-c2ccc([N+](=O)[O-])cc2)C2(CCCCC2)C1=O (configuration not stated) | inconclusive: -43.2%
CCOc1ccccc1NC(=O)N1CCCC(c2nc3c(nnn3Cc3ccc(C)cc3)c(=O)[nH]2)C1 (configuration not stated) | inactive: 3.13%
Cc1cc(C(=O)c2ccc(C(C)(C)C)cc2)c(NC(=O)CCl)s1 | inactive: -2.4%
COc1ccccc1NC(=O)CSc1nc(N)cc(N)n1 | inconclusive: -40.1%
Cc1cc(C)cc(NC(=O)CSc2nnc(Cn3c(=O)sc4ccccc43)n2C)c1 | inactive: -23.6%
Clc1cccc(Nc2ncnc3ccc(Br)cc23)c1 | inactive: -14.5%
CCC(CC)C(=O)Nc1cccc(C(=O)NCCc2ccc(S(N)(=O)=O)cc2)c1 | active: -101%
C/C(=C\C(=O)Nc1cc(C)on1)c1ccccc1 | inconclusive: -37.6%
CCCCCCN1C=C/C(=C\C=C(C#N)C#N)c2ccccc21 | inconclusive: -60.3%
O=C(NCCN1C(=O)CSC1=O)c1ccccc1 | inconclusive: -35.6%
O=C(Nc1nnc(-c2ccccc2SCc2ccccc2)s1)Nc1ccccc1F | inconclusive: -44%
CCOc1ccc(-c2nnc3n2N=C(c2ccc(OC)cc2)CS3)cc1 | inactive: 13.6%
CCS(=O)(=O)c1ccc2oc(SCC(=O)N3c4ccccc4CC3C)nc2c1 (configuration not stated) | inconclusive: -51.8%
O=C(/C=C/c1ccc(OC(F)F)cc1)OCC(=O)N1CCN(C(=O)c2ccco2)CC1 | inactive: 13.4%
CCc1ccc(NC(=O)N(CCCOC(C)C)C2CCN(C(C)=O)CC2)cc1 | inactive: 20.5%
